Test results as given in PubChem BioAssay AID540276 (National Center for Advancing Translational Sciences (NCATS), 2011).
Hit rate of the full screen: of about 300,000 compounds, about 5,400 (1.8%) were called active. The shares of active, inactive and inconclusive entries below differ from those in the screen. The call rests on the fitted dose curve; tested in HEK293 cells. Potencies beside an inconclusive call are fits to weak or partial responses and may not hold up.

Assay: qHTS for inhibitors of binding or entry into cells for Marburg Virus
Settings: Marburg virus pseudotyped entry inhibition, cell reporter; series mostly up to 37.8 µM
Potency means the concentration at half of the fitted maximal effect.

SMILES	Potency
CCCCNC(=S)N/N=C/c1sccc1C	inconclusive: 7.08 µM [inhibitor, partial curve, poor fit]
CCOc1ccc(NC(=O)NC23CC4CC(CC(C4)C2)C3)cc1	inconclusive: 2 µM [activator, partial curve, poor fit]
N#CCc1ccc(NS(=O)(=O)c2ccc(C3CCCCC3)cc2)cc1	inconclusive: 5.62 µM [inhibitor, partial curve, poor fit]
CCC1CCc2c(sc(N)c2C(N)=O)C1 (centres undefined)	inconclusive: 2 µM [inhibitor, partial curve, poor fit]
Cc1ccc(N(C)S(=O)(=O)c2cccc(C(=O)OCC(=O)N3CCCC(C)C3)c2)cc1 (centres undefined)	inactive
CC(C)c1ccc(-n2c(-c3ccccc3)c[n+]3c2CCc2ccccc2-3)cc1	inconclusive: 3.55 µM [inhibitor, single point]
COc1ccc2[nH]cc(CCN=C(NC(=O)c3ccccc3C)Nc3nc(C)cc(C)n3)c2c1	inconclusive: 3.16 µM [inhibitor, partial curve, poor fit]
CCn1cc(C(=O)N2CCN(c3ccc(OC)cc3)CC2)c(=O)c2cc(S(=O)(=O)N3CCOCC3)ccc21	inactive
Cc1ccc(S(=O)(=O)NC(=O)COc2ccccc2C)cc1	inconclusive: 25.1 µM [activator, single point]
COc1ccccc1-c1nnc2sc(-c3cc4ccccc4o3)nn12	inconclusive: 0.73 µM [inhibitor, full curve, poor fit]
CCCCCN(C(=O)CCC(=O)OCc1cc(C)ccc1C)c1c(N)n(CCCC)c(=O)[nH]c1=O	inconclusive: 11.2 µM [inhibitor, partial curve, poor fit]
CS(=O)(=O)c1ccc(C(=O)Nc2nc(-c3ccco3)c(-c3ccco3)s2)cc1	inactive
O=C(Nc1ccccc1)c1ccccc1N=Cc1cccc(O)c1	inactive
Cc1nc(-c2ccc(F)cc2)c(CC(=O)N(C)CC(=O)Nc2ccccc2Br)s1	inactive
Cc1cc(=O)oc2cc(OCC(=O)OCC(=O)Nc3ccccc3F)ccc12	inconclusive: 6.31 µM [inhibitor, single point]
COc1ccc(Nc2nc3ccccc3n3cnnc23)cc1Cl	inactive
COc1cc(OC)cc(C(=O)NCCOc2ccccc2)c1	inconclusive: 7.94 µM [activator, partial curve, poor fit]
S=C(c1ccc(-c2ccc(Br)cc2)o1)N1CCOCC1	inconclusive: 0.562 µM [activator, partial curve, poor fit]
COc1ccc(Br)cc1CN(C)CC(=O)NCCc1ccc(S(N)(=O)=O)cc1	inconclusive: 7.08 µM [inhibitor, partial curve, poor fit]

An excerpt of these results, in CSV form:
SMILES,Potency
CC(C)c1ccc(-n2c(-c3ccccc3)c[n+]3c2CCc2ccccc2-3)cc1,"inconclusive: 3.55 µM [inhibitor, single point]"
COc1ccc2[nH]cc(CCN=C(NC(=O)c3ccccc3C)Nc3nc(C)cc(C)n3)c2c1,"inconclusive: 3.16 µM [inhibitor, partial curve, poor fit]"
CCn1cc(C(=O)N2CCN(c3ccc(OC)cc3)CC2)c(=O)c2cc(S(=O)(=O)N3CCOCC3)ccc21,inactive
Cc1ccc(S(=O)(=O)NC(=O)COc2ccccc2C)cc1,"inconclusive: 25.1 µM [activator, single point]"
COc1ccccc1-c1nnc2sc(-c3cc4ccccc4o3)nn12,"inconclusive: 0.73 µM [inhibitor, full curve, poor fit]"
